Experimental data published in US20040029910A1, “Protoberberine derivatives which inhibit activity of the mitogen-activated protein kinase” (priority 2000, published 2004).
Some entries share one result that the patent states for a list of compounds. For at least one compound, name, drawing or mass did not settle the structure. Some ranges recur; such a range may be that of the whole group of compounds.

Each compound was assayed on KGY246 cells, wild type Saccharomyces pombe (assay: Minimum inhibitory concentration (MIC) on Schizosaccharomyces pombe). Settings: YE^AU medium; minimal concentration at which cell number stayed constant; 10% ethanol as solvent.
Type: cell-based
Method: Measurement of Minimum Inhibitory Concentration(MIC) of Protoberberine Derivatives on Schizosaccharomyces pombe
KGY246 cells, wild type Saccharomyces pombe, were cultured in rich media YE^AU (yeast extract, peptone, malt extract, dextrose, agar: pH 6.2)containing 0.75 mg/L adenine and uracil to exponential phase. To determine minimum inhibitory concentration of each protoproberberine derivative, cells in exponential phase were transferred to YE^AU medium containing variable concentrations of protoberberine derivatives and cell number was measured every 3 hour. Thereafter, the minimal concentration on which cell number was maintained constantly was determined as minimum inhibitory concentration. The minimum inhibitory concentrations of protoberberine derivatives 13-(4-t-butylbenzyl)berberine chloride, 13-(4-(t-butyldimetylsilyloxy)benzyl)berberine chloride and 2,3,9,10-tetrapropoxyprotoberberine iodide of the present invention were 20 ug/mL, 7 ug/mL and 20 ug/mL respectively. To minimize inhibition by solvent itself, 10% ethanol was used as a solvent of protoberberine derivatives. The processes of cell culture and measurement of cell number described above were repeated using 13-benzylberberine iodide, 13-(4-chlorobenzyl)berberine iodide, 13-(3-bromobenzyl)berberine iodide, 13-(2,3-dichlorobenzyl) berberine chloride, 13-(2-chloro-6-fluorobenzyl)berberine chloride, 13-(4-fluoro-2-trifluoromethylbenzyl)berberine chloride, 13-(2,3,4,5,6-pentafluorobenzyl)berberine chloride, 13-(2,3,5,6-tetrafluoro-4-trifluoromethylbenzyl) berberine chloride, 13-(4-methylbenzyl)berberine chloride, 13-(2,4-dimethylbenzyl)berberine chloride, 13-(4-methyl-3-nitrobenzyl)berberine chloride, 13-(3-trifluoromethyl benzyl)berberine chloride, 13-(4-methoxybenzyl)berberine chloride, 13-(4-trifluoromethoxybenzyl)berberine chloride, 13-(4-methoxycarbonylbenzyl)berberine chloride, 13-(4-i-propylbenzyl)berberine chloride. These compounds also had the minimum concentration of inhibition at the concentration of 18-22 ug/mL.
In the case of `COc1ccc2c(Cc3c(F)cccc3Cl)c3[n+](cc2c1OC)CCc1cc2c(cc1-3)OCO2` [13-(2-chloro-6-fluorobenzyl)berberine chloride], the minimum inhibitory concentration is reported as 18 to 22 µg/mL.
In the case of `COc1ccc2c(Cc3cccc(Cl)c3Cl)c3[n+](cc2c1OC)CCc1cc2c(cc1-3)OCO2.[Cl-]` [13-(2,3-dichlorobenzyl)berberine chloride], the minimum inhibitory concentration is reported as 18 to 22 µg/mL.
`COc1ccc2c(Cc3ccc(C(C)C)cc3)c3[n+](cc2c1OC)CCc1cc2c(cc1-3)OCO2.[Cl-]` [13-(4-i-propylbenzyl)berberine chloride] was tested, and the minimum inhibitory concentration was 18 to 22 µg/mL.
`COc1ccc2c(Cc3ccc(F)cc3C(F)(F)F)c3[n+](cc2c1OC)CCc1cc2c(cc1-3)OCO2.[Cl-]` [13-(4-fluoro-2-trifluoromethylbenzyl)berberine chloride] was tested, and the minimum inhibitory concentration was 18 to 22 µg/mL.
`COc1ccc2c(Cc3ccc(C)cc3C)c3[n+](cc2c1OC)CCc1cc2c(cc1-3)OCO2.[Cl-]` [13-(2,4-dimethylbenzyl)berberine chloride] gave a minimum inhibitory concentration of 18 to 22 µg/mL.
For `COc1ccc2c(Cc3ccc(Cl)cc3)c3[n+](cc2c1OC)CCc1cc2c(cc1-3)OCO2.[I-]` [13-(4-chlorobenzyl)berberine iodide], the minimum inhibitory concentration was 18 to 22 µg/mL.
For `COc1ccc2c(Cc3ccc(C)cc3)c3[n+](cc2c1OC)CCc1cc2c(cc1-3)OCO2.[Cl-]` [13-(4-methylbenzyl)berberine chloride], the minimum inhibitory concentration was 18 to 22 µg/mL.
`COc1ccc2c(Cc3ccc(OC(F)(F)F)cc3)c3[n+](cc2c1OC)CCc1cc2c(cc1-3)OCO2.[Cl-]` [13-(4-trifluoromethoxybenzyl)berberine chloride] gave a minimum inhibitory concentration of 18 to 22 µg/mL.
With `COc1ccc2c(Cc3cccc(C(F)(F)F)c3)c3[n+](cc2c1OC)CCc1cc2c(cc1-3)OCO2.[Cl-]` [13-(3-trifluoromethylbenzyl)berberine chloride] the minimum inhibitory concentration was 18 to 22 µg/mL.
For `COc1ccc2c(Cc3cccc(Br)c3)c3[n+](cc2c1OC)CCc1cc2c(cc1-3)OCO2` [13-(3-bromobenzyl)berberine iodide], the minimum inhibitory concentration was 18 to 22 µg/mL.
`COc1ccc2c(Cc3c(F)c(F)c(F)c(F)c3F)c3[n+](cc2c1OC)CCc1cc2c(cc1-3)OCO2` [13-(2,3,4,5,6-pentafluorobenzyl)berberine chloride] showed a minimum inhibitory concentration of 18 to 22 µg/mL.
`COc1ccc2c(Cc3ccccc3)c3[n+](cc2c1OC)CCc1cc2c(cc1-3)OCO2.[I-]` [13-benzylberberine iodide] showed a minimum inhibitory concentration of 18 to 22 µg/mL.
`COC(=O)c1ccc(Cc2c3[n+](cc4c(OC)c(OC)ccc24)CCc2cc4c(cc2-3)OCO4)cc1` [13-(4-methoxycarbonylbenzyl)berberine chloride] gave a minimum inhibitory concentration of 18 to 22 µg/mL.
For `COc1ccc2c(Cc3c(F)c(F)c(C(F)(F)F)c(F)c3F)c3[n+](cc2c1OC)CCc1cc2c(cc1-3)OCO2.[Cl-]` [13-(2,3,5,6-tetrafluoro-4-trifluoromethylbenzyl)berberine chloride], the minimum inhibitory concentration was 18 to 22 µg/mL.
`COc1ccc2c(Cc3ccc(C)c([N+](=O)[O-])c3)c3[n+](cc2c1OC)CCc1cc2c(cc1-3)OCO2.[Cl-]` [13-(4-methyl-3-nitrobenzyl)berberine chloride] was tested, and the minimum inhibitory concentration was 18 to 22 µg/mL.
`COc1ccc(Cc2c3[n+](cc4c(OC)c(OC)ccc24)CCc2cc4c(cc2-3)OCO4)cc1` [13-(4-methoxybenzyl)berberine chloride] showed a minimum inhibitory concentration of 18 to 22 µg/mL.
